Tested on: mouse model of generalised seizure (tonic hind limb extensor convulsions)
Test: Maximal electroshock seizure threshold (MEST) test in the mouse
Conditions: diazepam 2.5 mg/kg i.p., 30 min post dose, current producing tonic hind limb extension in 50% of animals
Description: The efficacy of the cannabinoid derivative according to formula (I) was tested in a mouse model of generalised seizure, the maximal electroshock seizure threshold (MEST) test.
The maximal electroshock seizure threshold (MEST) test is widely utilized preclinically to evaluate pro- or anti-convulsant properties of test compounds (Loscher et al., 1991).
In the MEST test the ability of a drug to alter the seizure threshold current required to induce hind limb tonic extensor convulsions is measured according to an “up and down” method of shock titration (Kimball et al., 1957). An increase in seizure threshold is indicative of anti-convulsant effect.
The ability of a test compound to alter the stimulus intensity, expressed as current (mA), required to induce the presence of tonic hind limb extensor convulsions, is assessed in the MEST.
Naïve mice were acclimatised to the procedure room in their home cages for up to 7 days, with food and water available ad libitum.
All animals were weighed at the beginning of the study and randomly assigned to treatment groups based on a mean distribution of body weight across groups. […]
Test compound effects were also calculated as percentage change in CC50 from the vehicle control group.
Significant difference between drug-treated animals and controls were assessed according to Litchfield and Wilcoxon (1949).

CN1C(=O)CN=C(c2ccccc2)c2cc(Cl)ccc21 [Diazepam, diazepam, reference compound]
CC50 +/- SEM: 78.5 ± 1.0 mA
CC50 +/- SEM (listed as diazepam): 78.5 mA

From patent US12534438B2, “Cannabinoid derivative as a pharmaceutically active compound and method of preparation thereof” (priority 2020, dated 2026)
